# Measurements published in PMC4813464.
# Chains of the proteins cited; added tags and fusions are not shown. Residues count along the entry.
# UniProt P04258: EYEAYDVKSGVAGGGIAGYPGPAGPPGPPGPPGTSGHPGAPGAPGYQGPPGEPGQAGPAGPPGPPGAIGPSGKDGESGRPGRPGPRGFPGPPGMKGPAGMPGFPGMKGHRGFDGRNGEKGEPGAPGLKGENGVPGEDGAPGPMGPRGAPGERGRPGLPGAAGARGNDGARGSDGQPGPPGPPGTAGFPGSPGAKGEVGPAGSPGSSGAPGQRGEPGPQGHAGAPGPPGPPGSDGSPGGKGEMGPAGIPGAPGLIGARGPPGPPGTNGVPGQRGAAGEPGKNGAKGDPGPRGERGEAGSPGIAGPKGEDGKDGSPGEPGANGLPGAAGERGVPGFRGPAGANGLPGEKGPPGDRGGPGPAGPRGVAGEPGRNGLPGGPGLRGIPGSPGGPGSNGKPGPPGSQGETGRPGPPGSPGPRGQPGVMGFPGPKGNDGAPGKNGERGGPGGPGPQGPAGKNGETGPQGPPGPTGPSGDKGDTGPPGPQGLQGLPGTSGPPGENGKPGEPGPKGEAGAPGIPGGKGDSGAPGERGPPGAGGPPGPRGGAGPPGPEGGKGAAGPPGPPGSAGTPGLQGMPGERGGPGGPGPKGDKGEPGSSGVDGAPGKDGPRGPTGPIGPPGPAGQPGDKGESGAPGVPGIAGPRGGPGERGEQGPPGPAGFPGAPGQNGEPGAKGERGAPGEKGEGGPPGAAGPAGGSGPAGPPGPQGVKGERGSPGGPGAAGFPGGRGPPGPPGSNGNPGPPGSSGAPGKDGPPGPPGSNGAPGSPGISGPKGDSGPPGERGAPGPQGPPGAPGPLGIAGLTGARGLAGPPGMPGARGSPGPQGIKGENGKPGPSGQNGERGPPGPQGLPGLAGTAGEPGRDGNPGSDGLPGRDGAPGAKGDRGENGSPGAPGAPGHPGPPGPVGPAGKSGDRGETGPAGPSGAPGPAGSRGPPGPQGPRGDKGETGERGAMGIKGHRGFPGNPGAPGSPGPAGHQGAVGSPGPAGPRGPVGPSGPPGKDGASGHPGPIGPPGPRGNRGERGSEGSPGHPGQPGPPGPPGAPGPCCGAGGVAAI
# UniProt Q08345, residues 21-417: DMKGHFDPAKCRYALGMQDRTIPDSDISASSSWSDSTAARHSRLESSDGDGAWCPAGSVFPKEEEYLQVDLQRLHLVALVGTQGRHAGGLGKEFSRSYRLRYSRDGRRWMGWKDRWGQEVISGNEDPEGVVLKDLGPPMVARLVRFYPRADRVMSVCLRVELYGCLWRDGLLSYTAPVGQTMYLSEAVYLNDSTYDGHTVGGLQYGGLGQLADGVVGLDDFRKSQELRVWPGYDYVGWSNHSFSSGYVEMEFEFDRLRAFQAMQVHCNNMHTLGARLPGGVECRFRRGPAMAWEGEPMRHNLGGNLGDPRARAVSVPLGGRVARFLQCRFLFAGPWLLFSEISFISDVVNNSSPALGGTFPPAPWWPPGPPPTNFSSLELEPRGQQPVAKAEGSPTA
# UniProt P04275, residues 764-2813: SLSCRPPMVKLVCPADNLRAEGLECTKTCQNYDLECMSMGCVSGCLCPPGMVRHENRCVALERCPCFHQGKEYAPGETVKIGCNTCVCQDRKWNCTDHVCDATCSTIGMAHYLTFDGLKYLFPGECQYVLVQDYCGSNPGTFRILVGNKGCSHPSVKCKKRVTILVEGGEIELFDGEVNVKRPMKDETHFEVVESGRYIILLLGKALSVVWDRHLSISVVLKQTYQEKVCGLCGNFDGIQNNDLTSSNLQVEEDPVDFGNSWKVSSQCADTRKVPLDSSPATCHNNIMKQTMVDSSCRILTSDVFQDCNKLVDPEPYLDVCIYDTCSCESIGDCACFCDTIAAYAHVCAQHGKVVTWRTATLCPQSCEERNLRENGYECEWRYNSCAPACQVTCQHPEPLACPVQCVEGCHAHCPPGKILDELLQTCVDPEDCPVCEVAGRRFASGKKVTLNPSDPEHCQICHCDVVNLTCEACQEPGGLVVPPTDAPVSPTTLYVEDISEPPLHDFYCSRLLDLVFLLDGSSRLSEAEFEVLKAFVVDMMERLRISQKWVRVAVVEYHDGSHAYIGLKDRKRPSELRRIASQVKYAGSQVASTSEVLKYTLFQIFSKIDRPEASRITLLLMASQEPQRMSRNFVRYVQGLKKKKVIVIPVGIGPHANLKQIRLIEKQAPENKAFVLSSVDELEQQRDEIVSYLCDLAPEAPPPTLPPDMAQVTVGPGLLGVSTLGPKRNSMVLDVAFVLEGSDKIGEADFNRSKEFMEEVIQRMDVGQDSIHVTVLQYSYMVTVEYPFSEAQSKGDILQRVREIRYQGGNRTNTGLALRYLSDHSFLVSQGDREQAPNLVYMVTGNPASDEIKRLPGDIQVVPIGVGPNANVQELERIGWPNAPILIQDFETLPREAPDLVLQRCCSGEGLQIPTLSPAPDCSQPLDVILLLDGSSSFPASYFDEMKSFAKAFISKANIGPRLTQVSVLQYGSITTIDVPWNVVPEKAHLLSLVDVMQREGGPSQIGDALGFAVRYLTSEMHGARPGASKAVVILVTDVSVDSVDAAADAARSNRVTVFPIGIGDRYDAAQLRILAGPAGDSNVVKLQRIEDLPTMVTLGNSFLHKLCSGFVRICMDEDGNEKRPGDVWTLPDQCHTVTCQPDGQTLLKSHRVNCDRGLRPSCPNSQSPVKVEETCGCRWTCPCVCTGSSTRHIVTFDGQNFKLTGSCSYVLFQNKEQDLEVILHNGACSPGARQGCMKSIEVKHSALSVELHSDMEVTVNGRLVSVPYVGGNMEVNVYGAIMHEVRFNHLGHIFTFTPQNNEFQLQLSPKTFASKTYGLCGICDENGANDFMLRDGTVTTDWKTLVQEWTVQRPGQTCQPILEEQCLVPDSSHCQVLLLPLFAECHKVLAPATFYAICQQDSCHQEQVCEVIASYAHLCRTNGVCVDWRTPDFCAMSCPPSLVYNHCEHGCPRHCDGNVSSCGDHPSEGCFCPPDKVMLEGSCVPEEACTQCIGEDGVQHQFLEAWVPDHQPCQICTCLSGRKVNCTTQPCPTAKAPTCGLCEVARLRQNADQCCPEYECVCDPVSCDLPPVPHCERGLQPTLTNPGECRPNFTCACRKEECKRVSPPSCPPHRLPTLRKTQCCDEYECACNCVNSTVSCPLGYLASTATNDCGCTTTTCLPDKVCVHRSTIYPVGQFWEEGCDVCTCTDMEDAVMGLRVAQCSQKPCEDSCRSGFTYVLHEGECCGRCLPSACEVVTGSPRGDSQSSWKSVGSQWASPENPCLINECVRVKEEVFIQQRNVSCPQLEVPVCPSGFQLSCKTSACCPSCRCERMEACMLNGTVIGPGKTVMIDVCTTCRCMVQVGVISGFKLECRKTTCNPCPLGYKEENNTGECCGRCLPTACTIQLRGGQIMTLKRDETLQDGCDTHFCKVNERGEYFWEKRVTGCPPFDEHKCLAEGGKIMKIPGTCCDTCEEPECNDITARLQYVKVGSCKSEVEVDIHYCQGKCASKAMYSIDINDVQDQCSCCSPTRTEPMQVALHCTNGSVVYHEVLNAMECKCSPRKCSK
# No constants are given. Whether binding was seen depends on the method and setting. Some entries that bind do so weakly or less than the wild type.
# Legend:
# [1] = target: Collagen type III, pepsin-extracted from bovine skin (bovine) (UniProt P04258); experiment: ELISA; competitive solid-phase binding assay: bovine collagen type III coated at 10 μg/ml; DDR-Fc at 3 μg/ml (43 nM) pre-incubated 1 h at room temperature with collagen samples at 0, 0.3, 1.3, 5 and 10 μM, then 3 h on the plate; anti-Fc detection, A450; both purified
# [2] = target: Triple-helical peptide GPC(GPP)5-GPRGQOGVMGFO-(GPP)5GPC-NH2 (human); experiment: ELISA; solid-phase binding assay: triple-helical peptides coated at 10 μg/ml on 96-well plates; DDR1-Fc or DDR2-Fc added for 3 h; anti-human Fc-HRP detection, A492; one-site fit; both purified
# [3] = target: Triple-helical peptide GPC(GPP)5-GPRGQOGVMGFP-(GPP)5GPC-NH2 (human); experiment: as above
# [4] = target: Triple-helical peptide GPC(GPP)5-…O-(GPP)5GPC-NH2 (human); experiment: as above
# [5] = target: Collagen type III, pepsin-extracted from bovine skin (bovine) (UniProt P04258); experiment: condition: only collagen type III denatured (90 °C, 30 min) before coating; ELISA; as a3, but the collagen samples were denatured (90 °C water bath, 30 min) before coating; both purified
binding [5],Substance,binding [1],binding [2],binding [3],binding [4]
,"DDR1-Fc (recombinant human discoidin domain receptor 1 ectodomain, Fc-tagged) (from UniProt Q08345 21-417) (Fc fusion)",binds,binds,binds,binds
no binding,"von Willebrand factor (human, in Hemate P) (from UniProt P04275 764-2813)",,,,
